PubChem BioAssay AID493014 (National Center for Advancing Translational Sciences (NCATS), 2011)
Some of the results follow. The main result of the screen is listed elsewhere. These columns were measured beside it and carry no call. Most of these compounds were active or inconclusive in the main read-out, so they are no random draw. Potencies come from curve fits of mixed quality, noted in brackets.

Assay: qHTS Assay to Find Inhibitors of Chronic Active B-Cell Receptor Signaling
Conditions: ABC-DLBCL IkBa-CBG/CBR reporter, luminescence ratio (green luciferase fused to IkBa over red control in TMD8 lymphoma cells), 4 h
Procedure, shortened: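 Compounds up to 46 uM were incubated four hours with TMD8 cells whose green CBG68 luciferase is fused to IkappaBalpha; red CBR luminescence normalised the signal, and concentration-effect curves were fitted to fusion, red and ratio data.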

[1] = measured here: CBR red luminescence, cell number
[2] = measured here: IkBa-CBG green luminescence

Compound | AC50 [1] | AC50 [2]
COc1ccc2c(Cl)c(C(=O)NC3CCS(=O)(=O)C3)sc2c1 (configuration not stated) | 20 µM [rising, partial curve, poor fit] | –
O=[N+]([O-])c1ccc(NC(=S)NCCc2ccccc2)cc1 | 2.31 µM [rising, partial curve, poor fit] | –
Cc1ccc(NC(=O)c2ccc(C)c(S(=O)(=O)N3CCCCCC3)c2)cc1 | 35.5 µM [falling, single point] | –
COCc1cc(=O)n2[nH]c(-c3ccsc3-n3c(C)ccc3C)cc2n1 | 0.731 µM [rising, full curve, poor fit] | –
COc1cccc(-c2nc(CS(=O)(=O)CC(=O)Nc3ccc(F)cc3F)c(C)o2)c1 | 22.4 µM [falling, single point] | –
CC(=O)CC(=O)Nc1ccccc1NC(C)=O | 6.51 µM [rising, single point] | –
O=C(CC1Sc2ccccc2NC1=O)Nc1cccc(C(F)(F)F)c1 (configuration not stated) | 7.94 µM [rising, partial curve] | –
Cc1cccc(-c2cccc(NC(=O)C3CCCN(C(=O)c4csc(C)n4)C3)c2)c1 (configuration not stated) | 31.6 µM [falling, single point] | –
COCCn1c(C(F)(F)F)ccc(NC(=O)c2ccccc2)c1=O | 0.112 µM [rising, full curve, poor fit] | –
CCOC(=O)c1cnc(SCC(=O)Nc2cc(OC)cc(OC)c2)nc1N | 35.5 µM [falling, single point] | –
O=C(CSc1nc2ccccc2c(=O)n1C1CC1)NCc1ccccc1 | 5.62 µM [falling, partial curve, poor fit] | –
CC(C)Nc1ncnc2c1cnn2-c1ccccc1 | 9.2 µM [falling, partial curve] | –
CCCOc1ccccc1-c1nc(SCCC(=O)O)n[nH]1 | 11.6 µM [falling, partial curve, poor fit] | –
Nc1nc(N)nc(-c2cc(F)ccc2O)n1 | – | 4.11 µM [rising, partial curve, poor fit]
CCc1ccc(-c2ccc(SCC(=O)Nc3nnc(C)s3)nn2)cc1 | 2.82 µM [falling, full curve] | –
CCOC(=O)c1c(C)n(C)c2ccc(OC)c(NC(=O)CN3CCN(Cc4ccccc4)CC3)c12 | 0.708 µM [rising, full curve, poor fit] | –
CCO[C@@H]1OC(C(N)=O)=C[C@H](c2coc3ccccc3c2=O)[C@H]1CCCO | 12.6 µM [rising, single point] | –
CCOC(=O)C(=CNNc1ccsc1C(=O)OC)C(=O)OCC | 17.8 µM [falling, single point] | –
CN(C)c1nc(SCCOC(=O)c2ccccc2)nc(N(C)C)n1 | 2.91 µM [rising, full curve, poor fit] | –
Oc1ccc(/C=N/N=C/c2ccc(O)cc2)cc1 | 1.12 µM [falling, partial curve, poor fit] | –
O=C(NC(=S)Nc1cc(C(F)(F)F)ccc1N1CCOCC1)c1sc2ccccc2c1Cl | 18.4 µM [falling, single point] | –
COc1ccccc1C(=O)COC(=O)/C=C/c1ccccc1 | 15.8 µM [falling, single point] | –

In another format: results already given
Compound	AC50 [1]	AC50 [2]
COc1cccc(-c2nc(CS(=O)(=O)CC(=O)Nc3ccc(F)cc3F)c(C)o2)c1	22.4 µM [falling, single point]	–
CC(=O)CC(=O)Nc1ccccc1NC(C)=O	6.51 µM [rising, single point]	–
O=C(CC1Sc2ccccc2NC1=O)Nc1cccc(C(F)(F)F)c1 (configuration not stated)	7.94 µM [rising, partial curve]	–
Cc1cccc(-c2cccc(NC(=O)C3CCCN(C(=O)c4csc(C)n4)C3)c2)c1 (configuration not stated)	31.6 µM [falling, single point]	–
COCCn1c(C(F)(F)F)ccc(NC(=O)c2ccccc2)c1=O	0.112 µM [rising, full curve, poor fit]	–
CCOC(=O)c1cnc(SCC(=O)Nc2cc(OC)cc(OC)c2)nc1N	35.5 µM [falling, single point]	–
O=C(CSc1nc2ccccc2c(=O)n1C1CC1)NCc1ccccc1	5.62 µM [falling, partial curve, poor fit]	–
CC(C)Nc1ncnc2c1cnn2-c1ccccc1	9.2 µM [falling, partial curve]	–
CCCOc1ccccc1-c1nc(SCCC(=O)O)n[nH]1	11.6 µM [falling, partial curve, poor fit]	–
Nc1nc(N)nc(-c2cc(F)ccc2O)n1	–	4.11 µM [rising, partial curve, poor fit]
CCc1ccc(-c2ccc(SCC(=O)Nc3nnc(C)s3)nn2)cc1	2.82 µM [falling, full curve]	–
CCOC(=O)c1c(C)n(C)c2ccc(OC)c(NC(=O)CN3CCN(Cc4ccccc4)CC3)c12	0.708 µM [rising, full curve, poor fit]	–
CCO[C@@H]1OC(C(N)=O)=C[C@H](c2coc3ccccc3c2=O)[C@H]1CCCO	12.6 µM [rising, single point]	–
CCOC(=O)C(=CNNc1ccsc1C(=O)OC)C(=O)OCC	17.8 µM [falling, single point]	–

Remaining list, next part:

Compound | AC50 [1] | AC50 [2]
Cn1c(=O)c2[nH]c(-c3ccccc3Cl)c(O)c2n(C)c1=O | 3.66 µM [falling, single point] | –
Cc1cc2nc(-c3ccc(SCC(=O)Nc4ccc(S(=O)(=O)N5CCCC5)cc4)nc3)[nH]c2cc1C | 1.03 µM [falling, full curve] | –
CCCCC(CCC(=O)Nc1ccn(-c2ccccc2)n1)C(=O)O (configuration not stated) | 6.31 µM [rising, single point] | –
COc1ccc(OC(=O)Nc2ccccc2)cc1 | 23.1 µM [falling, single point] | –
CC(C)(C)C(=O)OCc1nc(-c2ccc(Cl)cc2)cs1 | 11.2 µM [rising, partial curve, poor fit] | –
O=C(NNC(=O)c1ccccc1OCc1ccccc1Cl)c1csc(N2CCOCC2)n1 | 35.5 µM [rising, single point] | –
O=C(NC(=S)Nc1ccccc1[N+](=O)[O-])c1ccccc1Cl | 35.5 µM [rising, single point] | –
CCOC(=O)C1=C2SCCN2C(=O)C(C#N)C1(C)C (configuration not stated) | 15.8 µM [falling, partial curve, poor fit] | –
O=S(=O)(Nc1cccc(-c2ccc3nncn3n2)c1)c1cc(F)ccc1F | 25.9 µM [rising, single point] | –
O=C1/C(=C\c2ccco2)NC(=S)N1c1ccccc1 | 0.501 µM [falling, full curve] | –
CCCNC(=O)c1ccc2c(=O)n(Cc3ccco3)c(=S)[nH]c2c1 | 1.78 µM [falling, full curve] | –
COc1ccc(NC(=O)C(C)Sc2nnc3c4c(nc(-c5ccc(OC)cc5)n23)CC(C)(C)OC4)cc1 (configuration not stated) | 0.231 µM [rising, full curve, poor fit] | –
Cc1ccc(OCC(=O)NC(=S)Nc2cccc(NC(=O)c3ccccc3Cl)c2)cc1 | 23.1 µM [falling, partial curve, poor fit] | –
COc1ccc(C(=O)N(C)CCCC2CCCC2)cc1OC1CCN(C(C)C)CC1 | 12.6 µM [falling, single point] | –
COc1ccc(OCC(=O)Nc2c(C(=O)N(CCN(C)C)Cc3ccco3)oc3ccccc23)cc1 | 1 µM [falling, full curve, poor fit] | –
O=C(O)CCc1ccc(S(=O)(=O)NCCc2ccccc2)cc1 | 35.5 µM [falling, single point] | –
COCCCn1c(SCC(=O)Nc2ccc(C)cc2)nc2ccccc2c1=O | 35.5 µM [rising, single point] | –
O=S(=O)(Nc1ccccc1O)c1cccc2cccnc12 | 6.31 µM [rising, single point] | –
O=C(NNC(=O)c1ccc2ccccc2c1O)Nc1ccc(F)cc1 | 12.6 µM [rising, single point] | –
O=C(Nc1ccc(-c2cn3c(n2)SCC3)cc1)c1ccc2c(c1)OCO2 | 7.08 µM [falling, partial curve] | –
CCOc1ccccc1N1C(=O)CC(N(O)c2ccccc2)C1=O (configuration not stated) | 0.517 µM [falling, full curve] | –
CCCCCCCC1(C)NC(=O)N(c2ccccc2)N1 (configuration not stated) | 0.891 µM [rising, full curve, poor fit] | –

Compound | AC50 [1] | AC50 [2]
Cc1nnc(NC(=O)c2ccccc2NC(=O)c2ccccc2)s1 | 2.24 µM [falling, partial curve, poor fit] | –
CC1(C)CC(=O)c2c(n(S(=O)(=O)c3ccccc3)c3ccc(NS(=O)(=O)c4ccccc4)cc23)C1 | 6.51 µM [falling, partial curve, poor fit] | 14.6 µM [rising, partial curve]
Cc1c(C(=O)OCCOC(C)C)[nH]c2c1C(=O)CC(c1ccco1)C2 (configuration not stated) | 2.06 µM [rising, full curve] | 4.61 µM [falling, partial curve, poor fit]
Cc1ccc(-c2nc(CN3CCN(c4cnccn4)CC3)c(C)o2)o1 | 3.55 µM [rising, partial curve, poor fit] | –
Cc1sc2ncnc(N3CCC(C(=O)N(C)CC(=O)Nc4ccccc4Cl)CC3)c2c1C | 15.8 µM [falling, single point] | –
Cc1nc(NC(=O)/C=C/c2ccccc2)sc1C(=O)Nc1ccccc1 | 2 µM [falling, full curve] | –
Cc1ccc(NC(=O)OCC(F)(F)C(F)F)cc1NC(=O)OCC(F)(F)C(F)F | 5.62 µM [rising, partial curve, poor fit] | –
CN(C)S(=O)(=O)Nc1cccc(NC(=O)CC23CC4CC(CC(C4)C2)C3)c1 | 15.8 µM [falling, partial curve] | –
COC(=O)c1ccc(Nc2nc3ccc(C)cc3n3cnnc23)cc1 | 3.55 µM [falling, partial curve] | –
COc1ccc(O)c(-c2cc(-c3ccccc3Cl)[nH]n2)c1 | 1.41 µM [rising, full curve, poor fit] | –
C=CCN(C(=O)CSC1=NC(=O)CN1C(C)=O)c1nc(C)c(-c2ccccc2)s1 | 5.62 µM [rising, single point] | 14.1 µM [falling, partial curve, poor fit]
CC(=O)c1cccc(NC(=O)c2cc3ccccn3n2)c1 | 0.103 µM [falling, full curve, poor fit] | –
O=C(Nc1nc2cc3c(cc2s1)OCCO3)C1CCCCC1 | 16.4 µM [falling, partial curve] | –
COc1ccc(NC(=O)CS(=O)(=O)c2cn(CC(=O)N3CCOCC3)c3ccccc23)cc1 | 17.8 µM [falling, single point] | –
CNC(=O)c1cnn(-c2nc(-c3ccc(OC)cc3)cs2)c1C(F)(F)F | 20 µM [rising, single point] | –
CCOc1ccc(C(=O)NCc2ccco2)cc1Cl | 20 µM [falling, single point] | –
O=C(CS(=O)(=O)Cc1ccccc1)N1CCc2ccccc21 | 9.2 µM [rising, partial curve, poor fit] | –
Cc1ccsc1C(=O)NNC(=O)CCN1CCN(c2ccccc2)CC1 | 29.1 µM [falling, partial curve, poor fit] | –
CC(=O)n1cc(N(C(=O)CCl)c2ccc(C)cc2)c2ccccc21 | 7.08 µM [falling, full curve] | –
CC(C)Cc1nnc(NC(=O)CCNC(=O)c2ccccc2Cl)s1 | 14.6 µM [falling, partial curve] | –
